Results are given in words; binding and its absence hold for the method and conditions named. Binding can be weak; no strength is given.

Sequences of proteins named here, by UniProt entry; tags and fusion partners are left off. A change or cut given only in a name is not applied to a line headed by its entry.
UniProt G3XKQ9: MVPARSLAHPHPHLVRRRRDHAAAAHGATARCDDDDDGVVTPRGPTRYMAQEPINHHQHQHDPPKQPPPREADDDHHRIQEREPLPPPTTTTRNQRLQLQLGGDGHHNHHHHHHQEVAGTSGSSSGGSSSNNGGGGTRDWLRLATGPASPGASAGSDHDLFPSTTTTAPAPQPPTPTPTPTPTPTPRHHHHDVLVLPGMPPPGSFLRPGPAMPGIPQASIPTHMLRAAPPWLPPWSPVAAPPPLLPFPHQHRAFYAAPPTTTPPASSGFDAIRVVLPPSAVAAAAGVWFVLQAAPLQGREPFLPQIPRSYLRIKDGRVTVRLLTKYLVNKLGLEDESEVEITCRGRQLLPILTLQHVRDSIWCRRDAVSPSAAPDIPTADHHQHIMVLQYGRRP

In the assay the target is LAX PANICLE 2 (rice (Oryza sativa)) (UniProt G3XKQ9). Briefly: two-hybrid; OsSPL7 as prey in pGAD-T7, LAX1 or LAX2 as bait in pGBK-T7; yeast on SD-LT and SD-LTAH media (Clontech system).

B1: OsSPL7 (protein, UniProt Q7XT42 1-360)
chain: MEGNGCGGSGATPRGVVGMHWAPVVTSPPSPQPPFLPPAPCRPDVQMQQQGGLTCLKLGKRPCFWGGDGAGQVAQGSGGGGGGGGGGSADQGKRKEKAATAVPVVPRCQVEGCDITLQGVKEYHRRHKVCEVHAKAPRVVVHGTEQRFCQQCSRFHVLAEFDDAKKSCRRRLAGHNERRRRSNASEAMARGSAHPHGMPVLGHGFPPYGLPTSSAGALSLLSSARATGPWLMPTPDISARSSAALDELIAENRAALLSWQFFSDRQPPPAGRPTGRSPGSETAGGWHAHLQARPPPPGAGGQHENQSGHVTLDLMQATTAAGGSGAPFRPVPARPPKEGGDAGCTSDAWTPSPMEGARVV
Regarding B1, the binding result is “binds”.

These data come from PMC6542935.
